Data source: PubChem BioAssay AID504764 (Drosophila RNAi Screening Center, 2011)
The deposit covers about 22,000 reagents; shown is an unselected part of those that have a named target and a result. Of all reagents, 403 (1.9%) got an active call. 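Unnormalised raw counts per well; ratio z-scores behind the hit calls and whether each hit raises or lowers signal are not deposited.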 The numbers tell different reagents against one gene apart. Names joined by + are all predicted targets of the reagent. The record does not give: the amount of reagent.

- Aim: 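Genes whose knock-down alters Notch-dependent transcription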 (primary screen)
- System: Drosophila Kc167 cells
- Knock-down reagent: long dsRNA against Drosophila genes
- Duration: about 5 days (4 days dsRNA, then 24 h after transfection)
- Challenge: transfection of constitutively active membrane-tethered Notch lacking the extracellular domain, read 24 h later
- Detection: 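Firefly luciferase from an E(spl)m3 reporter with active Notch, plus control-promoter and uninduced reporter wells for normalisation; unnormalised counts, duplicate wells a and b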
- Reading the numbers: induced reporter light, run 1, well a and induced reporter light, run 1, well b: higher = more light from the Notch target reporter with active Notch; control promoter light, run 1, well a and control promoter light, run 1, well b: higher = more light from the viral control promoter (cell number, transfection, viability); uninduced reporter light, run 1, well a: higher = more light from the Notch target reporter without active Notch
- Rule for the call: 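Wells with low control signal or poorly matching duplicates excluded; duplicates averaged; per source plate, z beyond ±2 for induced/control log2 ratio or beyond ±1.8 for induced/uninduced marks a hit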
- Meaning of the calls: active = modifier hit (raised or lowered Notch signal); inactive = not a hit

gene knocked down | dsRNA no. | induced reporter light, run 1, well a | induced reporter light, run 1, well b | control promoter light, run 1, well a | control promoter light, run 1, well b | uninduced reporter light, run 1, well a | activity call
CG7806 (GeneID 34140) | 1 | 1.70e5 | 1.91e5 | 1.68e5 | 1.60e5 | 15890 | inactive
CG8607 (GeneID 38805) | 1 | 1.43e5 | 1.43e5 | 1.38e5 | 1.18e5 | 7060 | inactive
CG6602 (GeneID 38691) | 1 | 2.21e5 | 1.62e5 | 1.71e5 | 1.57e5 | 7320 | inactive
Ubc87F (GeneID 41682) | 1 | 2.33e5 | 2.46e5 | 2.06e5 | 2.17e5 | 18145 | inactive
Bin1 (GeneID 41965) | 1 | 1.60e5 | 1.92e5 | 1.62e5 | 1.64e5 | 15745 | inactive
CG2126 (GeneID 43748) | 1 | 1.29e5 | 1.17e5 | 2.27e5 | 2.17e5 | 8510 | inactive
cno (GeneID 40620) | 1 | 1.32e5 | 1.93e5 | 1.77e5 | 1.61e5 | 14870 | inactive
cno (GeneID 40620) | 2 | 2515 | 2605 | 3830 | 3880 | 3080 | inactive
Mkp3 (GeneID 40081) | 1 | 1.33e5 | 1.39e5 | 94385 | 94895 | 8530 | inactive
Mkp3 (GeneID 40081) | 2 | 1.05e5 | 97845 | 1.04e5 | 89560 | 8900 | inactive
asrij (GeneID 37637) | 1 | 1.93e5 | 1.81e5 | 1.85e5 | 1.33e5 | 13490 | inactive
CG7213 (GeneID 38924) | 1 | 2.34e5 | 2.04e5 | 3.64e5 | 2.61e5 | 8230 | inactive
Pfdn1 (GeneID 33857) | 1 | 87870 | 56270 | 82330 | 79645 | 4860 | inactive
indra (GeneID 38159) | 1 | 1.20e5 | 1.16e5 | 2.27e5 | 2.34e5 | 14220 | inactive
Shawn + Tyler | 1 | 1.22e5 | 1.10e5 | 1.24e5 | 65985 | 9815 | inactive
Shawn + Tyler | 2 | 72145 | 74580 | 90595 | 94735 | 9780 | inactive
GAPcenA (GeneID 38945) | 1 | 1.63e5 | 1.34e5 | 1.26e5 | 1.35e5 | 6400 | inactive
Tmem214 (GeneID 34514) | 1 | 1.52e5 | 1.66e5 | 66335 | 91460 | 17720 | inactive
Tmem214 (GeneID 34514) | 2 | 1.11e5 | 1.27e5 | 75410 | 96350 | 16705 | inactive
Arglu1 (GeneID 34320) | 1 | 1.34e5 | 1.58e5 | 66845 | 61345 | 20055 | inactive
CG33796 (GeneID 3771914) | 1 | 2.16e5 | 2.05e5 | 2.77e5 | 2.41e5 | 15330 | inactive
CG15649 (GeneID 37371) | 1 | 40550 | 40845 | 34950 | 35260 | 1788 | inactive
Tango4 (GeneID 32168) | 1 | 16850 | 13895 | 14485 | 11940 | 1185 | inactive
Bka (GeneID 46032) | 1 | 1.27e5 | 1.51e5 | 80285 | 1.09e5 | 17020 | inactive
Muc68Ca (GeneID 2768980) | 1 | 1.70e5 | 1.49e5 | 2.07e5 | 1.78e5 | 12710 | inactive
Muc68Ca (GeneID 2768980) | 2 | 1.70e5 | 1.49e5 | 2.55e5 | 1.88e5 | 10465 | inactive
Acp26Aa (GeneID 33817) | 1 | 1.73e5 | 1.37e5 | 1.75e5 | 1.52e5 | 10595 | inactive
CG6996 (GeneID 40212) | 1 | 1.50e5 | 1.06e5 | 99180 | 98775 | 7820 | inactive
Noc1 (GeneID 39240) | 1 | 93475 | 1.36e5 | 67320 | 28385 | 10592 | inactive
CG6927 (GeneID 31419) | 1 | 2.86e5 | 2.91e5 | 4.22e5 | 4.45e5 | 19270 | inactive
Nup54 (GeneID 36360) | 1 | 2.25e5 | 1.45e5 | 1.38e5 | 1.31e5 | 15440 | inactive
CG4927 (GeneID 36852) | 1 | 65465 | 78470 | 78525 | 84120 | 6885 | inactive
CG10462 (GeneID 35260) | 1 | 2.03e5 | 2.74e5 | 2.29e5 | 2.22e5 | 17345 | inactive
Ankle2 (GeneID 32732) | 1 | 1.38e5 | 1.37e5 | 1.11e5 | 66715 | 10035 | inactive
Ankle2 (GeneID 32732) | 2 | 49270 | 45620 | 70705 | 48065 | 7310 | inactive
CG11076 (GeneID 43830) | 1 | 1.12e5 | 1.27e5 | 1.91e5 | 1.72e5 | 9285 | inactive
salto (GeneID 36332) | 1 | 1.58e5 | 1.42e5 | 1.63e5 | 1.76e5 | 14625 | inactive
CG32333 (GeneID 38142) | 1 | 92205 | 1.16e5 | 2.00e5 | 1.54e5 | 7670 | inactive
CG32333 (GeneID 38142) | 2 | 88615 | 90515 | 81190 | 72385 | 4020 | inactive
CG11865 (GeneID 34917) | 1 | 1.24e5 | 1.25e5 | 1.24e5 | 1.43e5 | 10245 | inactive
CG2129 (GeneID 31741) | 1 | 1.67e5 | 1.07e5 | 1.51e5 | 1.22e5 | 7750 | inactive
Lsp2 (GeneID 45326) | 1 | 1.69e5 | 1.42e5 | 2.79e5 | 2.22e5 | 9205 | inactive
Lsp2 (GeneID 45326) | 2 | 1.96e5 | 1.60e5 | 3.25e5 | 1.89e5 | 9982 | inactive
Sox100B (GeneID 45039) | 1 | 82545 | 69870 | 1.14e5 | 1.14e5 | 7085 | inactive
Sox100B (GeneID 45039) | 2 | 4135 | 3865 | 8635 | 8795 | 470 | inactive
CG8617 (GeneID 36594) | 1 | 97545 | 1.24e5 | 1.36e5 | 1.23e5 | 10185 | inactive
Rx (GeneID 37367) | 1 | 54660 | 84340 | 58250 | 78450 | 7290 | inactive
Rx (GeneID 37367) | 2 | 41915 | 38105 | 42280 | 65220 | 2575 | inactive
CG15213 (GeneID 50316) | 1 | 1.14e5 | 1.27e5 | 1.28e5 | 80785 | 8195 | inactive
fzr (GeneID 45922) | 1 | 1.23e5 | 1.24e5 | 2.83e5 | 2.34e5 | 9400 | inactive
CG34171 (GeneID 5740474) | 1 | 80375 | 98730 | 89190 | 77315 | 7380 | inactive
CG3308 (GeneID 42527) | 1 | 1.58e5 | 1.51e5 | 1.58e5 | 1.38e5 | 14690 | inactive
CG3746 (GeneID 37593) | 1 | 1.59e5 | 1.34e5 | 1.22e5 | 1.31e5 | 12025 | inactive
alpha-Man-Ib (GeneID 43436) | 1 | 2.19e5 | 2.08e5 | 3.19e5 | 3.10e5 | 14378 | inactive
CG3107 (GeneID 35475) | 1 | 1.67e5 | 1.72e5 | 1.43e5 | 1.83e5 | 12845 | inactive
Smg6 (GeneID 42994) | 1 | 5705 | 6625 | 6950 | 6405 | 540 | inactive
Psa (GeneID 38175) | 1 | 91320 | 88645 | 1.96e5 | 1.75e5 | 7790 | inactive
Ugt305A1 (GeneID 59217) | 1 | 1.33e5 | 1.19e5 | 2.05e5 | 2.18e5 | 8885 | inactive
CG14346 (GeneID 33325) | 1 | 1.01e5 | 1.07e5 | 1.04e5 | 68260 | 8592 | inactive
topi (GeneID 41199) | 1 | 63345 | 79740 | 98365 | 63085 | 4960 | inactive
Pih1D1 (GeneID 34685) | 1 | 2.58e5 | 2.42e5 | 1.83e5 | 1.95e5 | 17445 | inactive
Vps29 (GeneID 33295) | 1 | 1.63e5 | 2.18e5 | 2.20e5 | 2.22e5 | 16590 | inactive
Dhps (GeneID 38917) | 1 | 2.17e5 | 1.73e5 | 2.42e5 | 2.15e5 | 12190 | inactive
CG30414 (GeneID 37705) | 1 | 2.19e5 | 1.82e5 | 2.06e5 | 1.68e5 | 13610 | inactive

Laid out differently: results already given.
{"gene knocked down":"CG3746 (GeneID 37593)","dsRNA no.":1,"induced reporter light, run 1, well a":1.59e5,"induced reporter light, run 1, well b":1.34e5,"control promoter light, run 1, well a":1.22e5,"control promoter light, run 1, well b":1.31e5,"uninduced reporter light, run 1, well a":12025,"activity call":"inactive"}
{"gene knocked down":"alpha-Man-Ib (GeneID 43436)","dsRNA no.":1,"induced reporter light, run 1, well a":2.19e5,"induced reporter light, run 1, well b":2.08e5,"control promoter light, run 1, well a":3.19e5,"control promoter light, run 1, well b":3.10e5,"uninduced reporter light, run 1, well a":14378,"activity call":"inactive"}
{"gene knocked down":"CG3107 (GeneID 35475)","dsRNA no.":1,"induced reporter light, run 1, well a":1.67e5,"induced reporter light, run 1, well b":1.72e5,"control promoter light, run 1, well a":1.43e5,"control promoter light, run 1, well b":1.83e5,"uninduced reporter light, run 1, well a":12845,"activity call":"inactive"}
{"gene knocked down":"Smg6 (GeneID 42994)","dsRNA no.":1,"induced reporter light, run 1, well a":5705,"induced reporter light, run 1, well b":6625,"control promoter light, run 1, well a":6950,"control promoter light, run 1, well b":6405,"uninduced reporter light, run 1, well a":540,"activity call":"inactive"}
{"gene knocked down":"Psa (GeneID 38175)","dsRNA no.":1,"induced reporter light, run 1, well a":91320,"induced reporter light, run 1, well b":88645,"control promoter light, run 1, well a":1.96e5,"control promoter light, run 1, well b":1.75e5,"uninduced reporter light, run 1, well a":7790,"activity call":"inactive"}
{"gene knocked down":"Ugt305A1 (GeneID 59217)","dsRNA no.":1,"induced reporter light, run 1, well a":1.33e5,"induced reporter light, run 1, well b":1.19e5,"control promoter light, run 1, well a":2.05e5,"control promoter light, run 1, well b":2.18e5,"uninduced reporter light, run 1, well a":8885,"activity call":"inactive"}
{"gene knocked down":"CG14346 (GeneID 33325)","dsRNA no.":1,"induced reporter light, run 1, well a":1.01e5,"induced reporter light, run 1, well b":1.07e5,"control promoter light, run 1, well a":1.04e5,"control promoter light, run 1, well b":68260,"uninduced reporter light, run 1, well a":8592,"activity call":"inactive"}
{"gene knocked down":"topi (GeneID 41199)","dsRNA no.":1,"induced reporter light, run 1, well a":63345,"induced reporter light, run 1, well b":79740,"control promoter light, run 1, well a":98365,"control promoter light, run 1, well b":63085,"uninduced reporter light, run 1, well a":4960,"activity call":"inactive"}
